Test system: pGEM3Zf+ (Promega)
Assay: Dye-primer cycle sequencing reactions with Thermo Sequenase using dGTP or a dGTP analog; resolution of compression artifacts
Format: biochemical
Conditions: for % Accuracy / Errors: parallel sequences, region approximately 129 to approximately 421 bases from the priming site, at least 6 regions of compression artifacts, 940 μM dGTP or analog (234 μM for 7-propynyl-7-deaza dGTP); for Sequence quality in compressed region (FIG. 1): sequence region approximately 235 bases from the priming site; for Sequence quality in compressed region (FIG. 2): sequence region approximately 310 bases from the priming site; for Sequence quality in compressed region (FIG. 3): sequence region approximately 300 bases from the priming site
Method: Sequencing reaction mixtures were prepared as follows:
The reaction mixtures were placed in a thermal cycler (MJ research) and cycled 30 times at 95° C., 30 sec; 45° C., 15 sec; and 60° C., 4 min. Following the thermal cycling, the samples were pooled, and loaded onto the sequencing instrument as described for sequencing using the Dynamic Direct sequencing kit (Amersham).

## CCCc1cn([C@H]2C[C@H](O)[C@@H](COP(=O)(O)OP(=O)(O)OP(=O)(O)O)O2)c2nc(N)[nH]c(=O)c12 [7-propyl-7-deaza-dGTP, 7-propyl-7-deaza-2′-deoxyguanosine-5′-triphosphate]
  % Accuracy: 99%
  Errors: 3
  Sequence quality in compressed region (FIG. 1): has the correct sequence
  Sequence quality in compressed region (FIG. 2): the only one which could be edited by simple inspection to the correct sequence

## Nc1nc2c(c(Cl)cn2[C@H]2C[C@H](O)[C@@H](COP(=O)(O)OP(=O)(O)OP(=O)(O)O)O2)c(=O)[nH]1 [7-Chloro-7-deaza-dGTP, 7-Chloro-7-deaza-2′-deoxyguanosine-5′-triphosphate]
  % Accuracy: 92%
  Errors: 23

## Nc1nc2c(ncn2[C@H]2C[C@H](O)[C@@H](COP(=O)(O)OP(=O)(O)OP(=O)(O)O)O2)c(=O)[nH]1 [dGTP, 2′-deoxyguanosine-5′-triphosphate]
  % Accuracy: 94%
  Errors: 17
  Sequence quality in compressed region (FIG. 1): compressed region in which anomalous migration of several bases results in sequence errors
  Sequence quality in compressed region (FIG. 3): has a compressed region
  Sequence quality in compressed region (FIG. 2): has a compressed region

## CC#Cc1cn([C@H]2C[C@H](O)[C@@H](COP(=O)(O)OP(=O)(O)OP(=O)(O)O)O2)c2nc(N)[nH]c(=O)c12 [7-Propynyl-7-deaza-dGTP, 7-(Prop-1-ynyl)-7-Deaza-2′-Deoxyguanosine-5′-Triphosphate]
  % Accuracy: 92%
  Errors: 21

## Nc1nc2c(ccn2[C@H]2C[C@H](O)[C@@H](COP(=O)(O)OP(=O)(O)OP(=O)(O)O)O2)c(=O)[nH]1 [Example 7-deaza-dGTP, 7-deaza-2′-deoxyguanosine-5′-triphosphate]
  % Accuracy: 98%
  Errors: 5

## CCc1cn([C@H]2C[C@H](O)[C@@H](COP(=O)(O)OP(=O)(O)OP(=O)(O)O)O2)c2nc(N)[nH]c(=O)c12 [7-ethyl-7deaza-dGTP, 7-ethyl-7-deaza-2′-deoxyguanosine-5′-triphosphate]
  Sequence quality in compressed region (FIG. 3): correct sequence

## Nc1nc2c(c(I)cn2[C@H]2C[C@H](O)[C@@H](COP(=O)(O)OP(=O)(O)OP(=O)(O)O)O2)c(=O)[nH]1 [7-Iodo-7-deaza-dGTP, 7-Iodo-7-deaza-2′-deoxyguanosine-5′-triphosphate]
  % Accuracy: 92%
  Errors: 22

## Nc1nc2c(c(CO)cn2[C@H]2C[C@H](O)[C@@H](COP(=O)(O)OP(=O)(O)OP(=O)(O)O)O2)c(=O)[nH]1 [7-hydroxymethyl-7-deaza-dGTP, 7-Hydroxymethyl-7-Deaza-2′-Deoxyguanosine-5′-Triphosphate]
  Sequence quality in compressed region (FIG. 3): correct sequence

Reference: patent US6906185B1, “Derivatives of 7-deaza -2′-deoxyguanosine-5'-triphosphate, preparation and use thereof” (Amersham Biosciences Corp., priority 1997, dated 2005)
